Literature values as cited in patent publication US20220184234A1, “METABOLIC TARGETING OF LOW GRADE TUMORS” (SonalaSense, Inc., priority 2020, published 2022).
Where two headings read alike, the source gives them in different places. At least one structure is not confirmed: it was looked up by name or label, or the drawing left a doubt.

Tests used:
[1] = system: rat ascites hepatoma 130 cells; settings: AH cells
[2] = hematoporphyrin 25 μg/mL, ultrasound 3.18 W/cm2
[3] = hematoporphyrin 50 μg/mL, ultrasound 1.92 MHz, 3.18 W/cm^2

Which results are given for `CC1=C(CCC(=O)O)c2cc3[nH]c(cc4nc(cc5[nH]c(cc1n2)c(C)c5C(C)O)C(C)=C4C(C)O)c(C)c3CCC(=O)O` (stereo not drawn) [hematoporphyrin]?
cells damaged [1, 2]: 96%; cells damaged ([1]; hematoporphyrin 50 μg/mL, ultrasound 1.92 MHz, 2.21 W/cm^2): 95%; cells damaged [1, 3]: 96%; cells damaged (mouse sarcoma 180 cells; [2]): 98%; cells damaged (mouse sarcoma 180 cells; hematoporphyrin 50 μg/mL, ultrasound 1.92 MHz, 1.27 W/cm^2): 67%; cells damaged (mouse sarcoma 180 cells; [3]): 98%
